# Assay results reported in paper PMC3082224.
# By UniProt entry, the sequences of proteins in these tests, tags left out.
# UniProt P40763, whole entry: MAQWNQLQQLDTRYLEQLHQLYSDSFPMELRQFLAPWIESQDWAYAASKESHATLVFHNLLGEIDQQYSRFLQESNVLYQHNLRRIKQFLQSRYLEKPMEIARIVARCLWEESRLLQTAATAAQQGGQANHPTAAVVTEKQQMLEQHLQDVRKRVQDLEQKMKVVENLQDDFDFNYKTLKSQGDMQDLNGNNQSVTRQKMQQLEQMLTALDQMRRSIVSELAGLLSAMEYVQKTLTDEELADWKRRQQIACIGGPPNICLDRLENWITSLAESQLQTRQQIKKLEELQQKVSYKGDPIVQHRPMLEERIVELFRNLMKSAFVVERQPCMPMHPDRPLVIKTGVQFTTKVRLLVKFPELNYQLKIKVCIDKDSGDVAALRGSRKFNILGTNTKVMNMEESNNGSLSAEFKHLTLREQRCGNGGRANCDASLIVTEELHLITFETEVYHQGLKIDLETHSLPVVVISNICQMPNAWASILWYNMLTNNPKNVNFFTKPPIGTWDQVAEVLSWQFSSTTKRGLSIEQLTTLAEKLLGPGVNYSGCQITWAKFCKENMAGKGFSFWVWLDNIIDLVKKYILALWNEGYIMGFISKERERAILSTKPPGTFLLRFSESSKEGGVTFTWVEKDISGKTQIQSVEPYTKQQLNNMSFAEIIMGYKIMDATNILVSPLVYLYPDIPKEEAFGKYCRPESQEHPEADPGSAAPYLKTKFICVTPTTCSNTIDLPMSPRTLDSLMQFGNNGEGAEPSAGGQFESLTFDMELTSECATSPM
# UniProt Q04206, whole entry: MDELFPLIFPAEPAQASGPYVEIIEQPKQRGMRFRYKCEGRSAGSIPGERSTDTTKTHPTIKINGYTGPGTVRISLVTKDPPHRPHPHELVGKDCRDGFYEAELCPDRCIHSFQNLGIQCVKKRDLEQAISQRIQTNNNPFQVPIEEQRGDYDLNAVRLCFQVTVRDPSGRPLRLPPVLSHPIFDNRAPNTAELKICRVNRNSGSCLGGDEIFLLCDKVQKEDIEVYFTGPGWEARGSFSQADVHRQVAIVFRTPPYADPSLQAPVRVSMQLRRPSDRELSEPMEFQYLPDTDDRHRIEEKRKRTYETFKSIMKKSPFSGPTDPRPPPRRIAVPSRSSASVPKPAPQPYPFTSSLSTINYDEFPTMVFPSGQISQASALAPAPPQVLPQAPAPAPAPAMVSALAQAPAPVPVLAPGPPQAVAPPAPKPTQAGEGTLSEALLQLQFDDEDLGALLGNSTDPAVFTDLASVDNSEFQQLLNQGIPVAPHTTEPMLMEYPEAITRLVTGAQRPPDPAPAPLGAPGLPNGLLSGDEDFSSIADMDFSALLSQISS
# The exact form of at least one protein or probe is not confirmed. Results from cells or extracts need not show a direct contact. For some of these results: A weaker result is weaker than the reference pair of the same experiment. For some of these results: At least one verdict was read from the data and is not stated in words by the source. For some of these results: Protein sequences can lack the tags named with them.
# Experiments:
# Experiment in all cases: pull-down
# [1] = biological target: STAT3 (activated, endogenous) (Homo sapiens (SW 480 colon adenocarcinoma cells)) (UniProt P40763); conditions: 5' amino-(CH2)6 and 3' (CH2)3-amino linkers, 1% NP40, 50 mM Hepes pH 7.6, 140 mM NaCl, salmon sperm DNA 1 ug/assay, 1 ug biotinylated ODN, 100-200 ug nuclear extract, 30 min at 4 C, then avidin-Sepharose 2 h, protein in an extract, label: biotin on linkers, folded or branched DNA
# [2] = tested on: STAT3 (activated, endogenous) + NF-kB (p50 or p65 immunoblot); conditions: nuclear fraction, IL-6-treated cells, NF-kB indirectly via STAT3; 5' amino-(CH2)6 and 3' (CH2)3-amino linkers; 1% NP40, 50 mM Hepes pH 7.6, 140 mM NaCl, salmon sperm DNA 1 ug/assay, 1 ug biotinylated ODN, 100-200 ug nuclear extract, 30 min at 4 C, then avidin-Sepharose 2 h; protein in an extract; label: biotin on linkers; folded or branched DNA
# [3] = biological target: T1, NF-kB p50 (Homo sapiens (SW 480 cells)) (UniProt P19838); conditions: nuclear fraction, TNF-alpha-treated cells, insensitive to STAT3-decoy; 5' amino-(CH2)6 and 3' (CH2)3-amino linkers; 1% NP40, 50 mM Hepes pH 7.6, 140 mM NaCl, salmon sperm DNA 1 ug/assay, 1 ug biotinylated ODN, 100-200 ug nuclear extract, 30 min at 4 C, then avidin-Sepharose 2 h; protein in an extract; label: biotin on linkers; folded or branched DNA
# T1 sequence (looked up, limits assumed): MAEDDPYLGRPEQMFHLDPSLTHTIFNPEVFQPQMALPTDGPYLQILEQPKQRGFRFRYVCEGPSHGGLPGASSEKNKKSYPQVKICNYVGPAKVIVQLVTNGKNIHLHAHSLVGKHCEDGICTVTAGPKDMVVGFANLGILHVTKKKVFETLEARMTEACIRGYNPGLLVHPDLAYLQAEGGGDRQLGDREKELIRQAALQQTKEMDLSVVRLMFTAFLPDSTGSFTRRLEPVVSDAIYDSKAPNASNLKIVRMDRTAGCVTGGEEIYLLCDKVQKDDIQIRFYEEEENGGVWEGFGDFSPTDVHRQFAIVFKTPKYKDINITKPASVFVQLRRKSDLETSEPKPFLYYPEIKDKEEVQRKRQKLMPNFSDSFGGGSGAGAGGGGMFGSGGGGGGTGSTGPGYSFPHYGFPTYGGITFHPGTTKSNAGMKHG
# [4] = biological target: NF-kB p65 (Homo sapiens (SW 480 cells)) (UniProt Q04206); conditions: nuclear fraction, TNF-alpha-treated cells, higher basal level; 5' amino-(CH2)6 and 3' (CH2)3-amino linkers; 1% NP40, 50 mM Hepes pH 7.6, 140 mM NaCl, salmon sperm DNA 1 ug/assay, 1 ug biotinylated ODN, 100-200 ug nuclear extract, 30 min at 4 C, then avidin-Sepharose 2 h; protein in an extract; label: biotin on linkers; folded or branched DNA
Sequence,"binding result ([1]; cytoplasmic fraction, untreated and IL-6-treated cells)","binding result ([1]; intracellular pull-down from cells transfected with biotinylated decoy, complex lacks karyopherin alpha)","binding result ([1]; nuclear extract, IL-6-treated cells)","binding result ([1]; nuclear extract, untreated cells, salmon sperm DNA competitor)",binding result [2],binding result [3],binding result [4]
CATTTCCCGTAAATCGAAGATTTACGGGAAATG [hp STAT3-decoy ODN],binds more weakly,binds,binds,binds,binds,–,–
CTGGAAAGTCCCTCGAAGAGGGACTTTCCAG [hairpin decoy NF-kB-ODN],–,–,–,–,–,binds,binds
